# In PubChem BioAssay AID248 (DTP/NCI, 2004):
# The list shows only some results of the screen, not a fair sample: it gathers tests that were run many times, whatever their T/C, doses with no T/C, and many T/C values between a quarter and a half above the control. Other doses and runs of a compound stand elsewhere. T/C is the treated group as % of the vehicle group. Some doses have a count of surviving animals in place of a T/C: the source files T/C as zero there, which appears to mark a toxic dose or a test without result, not a measured value. Some survivor counts are full or nearly so, which does not show that the dose was tolerated: the source hardly ever lists a survival T/C far under the control, and the zero likely stands for such cases as well. Survivors were counted at the toxicity check, usually on the fifth day, unless a day is given; later deaths do not show. Schedules are NCI's codes, read here as Q, the interval in days (D) or hours (H), X, the number of doses. Some schedule codes hold Z or #, which are not explained here. Where survival is the endpoint, this PubChem deposit counts one and a half times the control or more as active, and values a quarter to a half above the control carry no call in these data; other NCI protocols may use other cut-offs. Some entries hold several experiments; their values stand side by side, smallest first. Some T/C values carry the count of animals alive at the toxicity check (mostly the fifth day); without a count, all were alive then.
# Test system: L1210 leukemia ip in BDF1 mice, survival T/C
# Test: NCI In Vivo Anticancer Drug Screen. Data for tumor model L1210 Leukemia (intraperitoneal) in B6D2F1 (BDF1) mice
# Conditions: higher T/C = longer survival
# [1] = T/C endpoint: mean survival time, dose: 400.0 mg/kg/injection, schedule: Q01DX001 (ip), vehicle: other
# [2] = T/C endpoint: mean survival time, dose: 200.0 mg/kg/injection, schedule: Q01DX001 (ip), vehicle: saline
# [3] = T/C endpoint: mean survival time, dose: 400.0 mg/kg/injection, schedule: Q01DX001 (ip), vehicle: saline
# [4] = T/C endpoint: mean survival time, dose: 100.0 mg/kg/injection, schedule: Q01DX001 (ip), vehicle: saline
compound,measurement,setting,value
O=C1NC(CCl)(CCl)CO1,survivor count,"T/C endpoint: mean survival time, dose: 4.0 mg/kg/injection, schedule: Q01DX001 (ip), vehicle: saline",3 of 6
same,survivor count,"T/C endpoint: mean survival time, dose: 8.0 mg/kg/injection, schedule: Q01DX001 (ip), vehicle: saline",0 of 6
CSc1ncc(Br)c(N2CC2)n1,survivor count,"T/C endpoint: mean survival time, dose: 133.0 mg/kg/injection, schedule: Q01DX Z (ip), vehicle: methylcellulose (MC)",1 of 6
same,survivor count,"T/C endpoint: mean survival time, dose: 200.0 mg/kg/injection, schedule: Q01DX Z (ip), vehicle: methylcellulose (MC)",0 of 6
CN=C(NCCCOC)c1ccc(NC(=O)Nc2ccc(NC(=O)Nc3ccc(C(=NC)NCCCOC)cc3)cc2)cc1,survivor count,"T/C endpoint: mean survival time, dose: 15.0 mg/kg/injection, schedule: Q01DX Z (ip), vehicle: carboxymethylcellulose (CMC)",1 of 6
same,survivor count,"T/C endpoint: mean survival time, dose: 30.0 mg/kg/injection, schedule: Q01DX Z (ip), vehicle: carboxymethylcellulose (CMC)",2 of 6
same,survivor count,"T/C endpoint: mean survival time, dose: 60.0 mg/kg/injection, schedule: Q01DX Z (ip), vehicle: carboxymethylcellulose (CMC)",0 of 6
same,survivor count,"T/C endpoint: mean survival time, dose: 120.0 mg/kg/injection, schedule: Q01DX Z (ip), vehicle: carboxymethylcellulose (CMC)",0 of 6
CC/C=C/C1(C(C)C)C(=O)NC(=O)NC1=O,survivor count,"T/C endpoint: mean survival time, dose: 300.0 mg/kg/injection, schedule: Q01DX001 (ip), vehicle: saline",0 of 6
O=C(Nc1ccccc1F)Oc1ccc(Cl)cc1Cl,survivor count,"T/C endpoint: mean survival time, dose: 300.0 mg/kg/injection, schedule: Q01DX009 (ip), vehicle: Klucel (hydroxypropylcellulose) (HPC)",4 of 6
same,survivor count,"T/C endpoint: mean survival time, dose: 400.0 mg/kg/injection, schedule: Q01DX009 (ip), vehicle: Klucel (hydroxypropylcellulose) (HPC)",4 of 6
same,survivor count,"T/C endpoint: mean survival time, dose: 400.0 mg/kg/injection, schedule: Q04DX002 (ip), vehicle: Klucel (hydroxypropylcellulose) (HPC)",3 of 3
OCCN1CCC(CCCC2CCNCC2)CC1,survivor count,"T/C endpoint: mean survival time, dose: 100.0 mg/kg/injection, schedule: Q01DX Z (ip), vehicle: saline",0 of 6
same,survivor count,"T/C endpoint: mean survival time, dose: 300.0 mg/kg/injection, schedule: Q01DX Z (ip), vehicle: saline",0 of 6
Cc1ccc([I+]c2ccc(C)cc2)cc1,survivor count,"T/C endpoint: mean survival time, dose: 64.0 mg/kg/injection, schedule: Q04DX002 (ip), vehicle: saline",0 of 3
same,survivor count,"T/C endpoint: mean survival time, dose: 128.0 mg/kg/injection, schedule: Q04DX002 (ip), vehicle: saline",0 of 3
same,survivor count,"T/C endpoint: mean survival time, dose: 256.0 mg/kg/injection, schedule: Q04DX002 (ip), vehicle: saline",0 of 3
CCCCCCCCCCCCCCCCCCCCCCCCCCCCCCCS,survivor count,[1],4 of 4
c1cn2cncc2cn1,survivor count,"T/C endpoint: mean survival time, dose: 400.0 mg/kg/injection, schedule: Q04DX003 (ip), vehicle: saline",0 of 6
CN=C(NCCc1ccccc1)c1ccc(NC(=O)c2ccc(C(=O)Nc3ccc(C(=NC)NCCc4ccccc4)cc3)cc2)cc1,survivor count,"T/C endpoint: mean survival time, dose: 15.0 mg/kg/injection, schedule: Q01DX Z (ip), vehicle: saline",1 of 6
same,survivor count,"T/C endpoint: mean survival time, dose: 30.0 mg/kg/injection, schedule: Q01DX Z (ip), vehicle: saline",0 of 6
same,survivor count,"T/C endpoint: mean survival time, dose: 60.0 mg/kg/injection, schedule: Q01DX Z (ip), vehicle: saline",0 of 6
same,survivor count,"T/C endpoint: mean survival time, dose: 120.0 mg/kg/injection, schedule: Q01DX Z (ip), vehicle: saline",0 of 6
COc1cccc(/C=C/[N+](=O)[O-])c1OCc1ccccc1,survivor count,"T/C endpoint: mean survival time, dose: 100.0 mg/kg/injection, schedule: Q04DX003 (ip), vehicle: acetone",4 of 6
same,survivor count,"T/C endpoint: mean survival time, dose: 200.0 mg/kg/injection, schedule: Q04DX003 (ip), vehicle: acetone",2 of 6
same,survivor count,"T/C endpoint: mean survival time, dose: 400.0 mg/kg/injection, schedule: Q04DX003 (ip), vehicle: acetone",1 of 6
N#Cc1c(Br)n(C2OC(CO)C(O)C2O)c2ncnc(N)c12 (configuration not stated),T/C,[2],127 % of control
same,survivor count,[3],3 of 6
same,T/C,"T/C endpoint: mean survival time, dose: 600.0 mg/kg/injection, schedule: Q01DX001 (ip), vehicle: saline",131 % of control [5 of 6 alive]
CCCCCn1c(C)cc(/C=C\c2ccc3cc(C)ccc3[n+]2C)c1C,T/C,"T/C endpoint: mean survival time, dose: 1.0 mg/kg/injection, schedule: Q01DX009 (ip), vehicle: saline sonified",131 % of control [4 of 6 alive]
same,survivor count,"T/C endpoint: mean survival time, dose: 2.0 mg/kg/injection, schedule: Q01DX009 (ip), vehicle: saline sonified",4 of 6
same,survivor count,"T/C endpoint: mean survival time, dose: 4.0 mg/kg/injection, schedule: Q01DX001 (ip), vehicle: carboxymethylcellulose (CMC)",2 of 4
same,survivor count,"T/C endpoint: mean survival time, dose: 6.25 mg/kg/injection, schedule: Q04DX003 (ip), vehicle: saline sonified",1 of 6
same,survivor count,"T/C endpoint: mean survival time, dose: 8.0 mg/kg/injection, schedule: Q01DX001 (ip), vehicle: carboxymethylcellulose (CMC)",2 of 4
same,survivor count,"T/C endpoint: mean survival time, dose: 12.5 mg/kg/injection, schedule: Q04DX003 (ip), vehicle: saline sonified",1 of 6
same,survivor count,"T/C endpoint: mean survival time, dose: 25.0 mg/kg/injection, schedule: Q04DX003 (ip), vehicle: saline sonified",0 of 6
same,survivor count,"T/C endpoint: mean survival time, dose: 100.0 mg/kg/injection, schedule: Q04DX003 (ip), vehicle: Klucel (hydroxypropylcellulose) (HPC)",0 of 6
same,survivor count,"T/C endpoint: mean survival time, dose: 200.0 mg/kg/injection, schedule: Q04DX003 (ip), vehicle: Klucel (hydroxypropylcellulose) (HPC)",0 of 6
same,survivor count,"T/C endpoint: mean survival time, dose: 400.0 mg/kg/injection, schedule: Q04DX003 (ip), vehicle: Klucel (hydroxypropylcellulose) (HPC)",0 of 6
CCOC(=O)c1cnn(-c2ccccc2)c1N,survivor count,"T/C endpoint: mean survival time, dose: 200.0 mg/kg/injection, schedule: Q01DX009 (ip), vehicle: saline",2 of 6
same,survivor count,"T/C endpoint: mean survival time, dose: 400.0 mg/kg/injection, schedule: Q01DX009 (ip), vehicle: saline",0 of 6
O=C1N(Cl)C2C(N1Cl)N(Cl)C(=O)N2Cl (configuration not stated),survivor count,"T/C endpoint: mean survival time, dose: 200.0 mg/kg/injection, schedule: Q01DX001 (ip), vehicle: carboxymethylcellulose (CMC)",0 of 4
same,survivor count,"T/C endpoint: mean survival time, dose: 400.0 mg/kg/injection, schedule: Q01DX001 (ip), vehicle: carboxymethylcellulose (CMC)",0 of 4
O=c1nc(NC(=S)Nc2ccn(C3OC(CO)C(O)C3O)c(=O)n2)ccn1C1OC(CO)C(O)C1O (configuration not stated),T/C,[4],138 % of control
same,T/C,"T/C endpoint: mean survival time, dose: 100.0 mg/kg/injection, schedule: Q01DX001 (ip), vehicle: water",125 and 132 % of control
same,survivor count,"T/C endpoint: mean survival time, dose: 200.0 mg/kg/injection, schedule: Q01DX001 (ip), vehicle: other",1 of 6
same,T/C,"T/C endpoint: mean survival time, dose: 200.0 mg/kg/injection, schedule: Q01DX001 (ip), vehicle: water",141 % of control
same,T/C,[1],126 % of control
same,survivor count,[1],0 of 6
same,T/C,"T/C endpoint: mean survival time, dose: 400.0 mg/kg/injection, schedule: Q01DX001 (ip), vehicle: water, evaluated on day 30",148 % of control [9 of 10 alive]
same,T/C,"T/C endpoint: mean survival time, dose: 400.0 mg/kg/injection, schedule: Q01DX001 (ip), vehicle: water, evaluated on day 60",131 % of control
same,survivor count,"T/C endpoint: mean survival time, dose: 600.0 mg/kg/injection, schedule: Q01DX001 (ip), vehicle: other",2 of 6
same,T/C,"T/C endpoint: median survival time, dose: 6.3 mg/kg/injection, schedule: Q03HX024 (ip), vehicle: saline",133 % of control
same,T/C,"T/C endpoint: median survival time, dose: 100.0 mg/kg/injection, schedule: Q03HX024 (ip), vehicle: saline",133 % of control [7 of 8 alive]
same,T/C,"T/C endpoint: median survival time, dose: 100.0 mg/kg/injection, schedule: Q04DX003 (ip), vehicle: saline",147 % of control
same,T/C,"T/C endpoint: median survival time, dose: 200.0 mg/kg/injection, schedule: Q01DX001 (ip), vehicle: saline",142 % of control
same,T/C,"T/C endpoint: median survival time, dose: 400.0 mg/kg/injection, schedule: Q01DX009 (ip), vehicle: saline",133 % of control
same,survivor count,"T/C endpoint: median survival time, dose: 800.0 mg/kg/injection, schedule: Q01DX009 (ip), vehicle: saline",8 of 8
same,survivor count,"T/C endpoint: median survival time, dose: 1600.0 mg/kg/injection, schedule: Q01DX001 (oral), vehicle: saline",6 of 8
Cc1ccccc1SC(=O)Nc1cc([N+](=O)[O-])ccc1Cl,survivor count,"T/C endpoint: mean survival time, dose: 100.0 mg/kg/injection, schedule: Q04DX003 (ip), vehicle: carboxymethylcellulose (CMC)",3 of 3
CC(C)(N)CO[C@H]1C[C@H]2CC[C@@]1(C)C2(C)C,survivor count,[4],1 of 4
same,survivor count,[2],0 of 4
same,survivor count,[3],0 of 4
NC(=O)c1cc(Cl)cc(Cl)c1N1CC[N+](CCCl)=N1,survivor count,"T/C endpoint: mean survival time, dose: 200.0 mg/kg/injection, schedule: Q01DX001 (ip), vehicle: saline with Tween-80",2 of 6
same,survivor count,"T/C endpoint: mean survival time, dose: 400.0 mg/kg/injection, schedule: Q01DX001 (ip), vehicle: saline with Tween-80",1 of 6
Cc1ccc([N+](=O)[O-])cc1NC(=O)SCCOC(=O)COc1ccc(Cl)cc1,survivor count,"T/C endpoint: mean survival time, dose: 200.0 mg/kg/injection, schedule: Q01DX009 (ip), vehicle: saline with Tween-80",6 of 6
same,survivor count,"T/C endpoint: mean survival time, dose: 400.0 mg/kg/injection, schedule: Q01DX009 (ip), vehicle: saline with Tween-80",1 of 6
